Data as given in publication PMC10518340, “Secreted LRPAP1 binds and triggers IFNAR1 degradation to facilitate virus evasion from cellular innate immunity” (Signal Transduction and Targeted Therapy, 2023).
These are yes or no findings as the source states them, for the method shown. Binding seen in cells or lysates may run through a third protein. Some results given as binding are weak or reduced against the parent protein; the word gives no strength.

Sequences of proteins named here, by UniProt entry; tags and fusion partners are left off. A change or cut given only in a name is not applied to a line headed by its entry. Residues count along the entry.
UniProt P17181: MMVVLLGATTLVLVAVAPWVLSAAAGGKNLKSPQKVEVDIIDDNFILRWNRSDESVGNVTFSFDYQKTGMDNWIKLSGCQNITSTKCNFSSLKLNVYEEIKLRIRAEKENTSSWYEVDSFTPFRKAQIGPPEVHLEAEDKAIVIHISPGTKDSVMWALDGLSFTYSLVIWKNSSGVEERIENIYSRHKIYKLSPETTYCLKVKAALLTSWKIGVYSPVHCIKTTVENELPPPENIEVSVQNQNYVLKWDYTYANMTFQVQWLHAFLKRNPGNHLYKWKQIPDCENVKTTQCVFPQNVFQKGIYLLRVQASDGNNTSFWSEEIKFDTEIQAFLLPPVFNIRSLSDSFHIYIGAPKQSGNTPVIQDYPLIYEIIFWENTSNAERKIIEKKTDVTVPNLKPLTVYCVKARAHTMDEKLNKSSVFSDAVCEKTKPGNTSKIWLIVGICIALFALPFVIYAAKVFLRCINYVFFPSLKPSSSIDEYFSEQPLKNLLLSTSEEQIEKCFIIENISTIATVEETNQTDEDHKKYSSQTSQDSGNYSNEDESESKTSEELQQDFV
IFNAR1 ectopically expressed in HEK-293T cells: residues 28-557 of P17181
recombinant extracellular domain of IFNAR1 (ECD-IFNAR1): residues 28-436 of P17181
UniProt P30533, residues 35-357: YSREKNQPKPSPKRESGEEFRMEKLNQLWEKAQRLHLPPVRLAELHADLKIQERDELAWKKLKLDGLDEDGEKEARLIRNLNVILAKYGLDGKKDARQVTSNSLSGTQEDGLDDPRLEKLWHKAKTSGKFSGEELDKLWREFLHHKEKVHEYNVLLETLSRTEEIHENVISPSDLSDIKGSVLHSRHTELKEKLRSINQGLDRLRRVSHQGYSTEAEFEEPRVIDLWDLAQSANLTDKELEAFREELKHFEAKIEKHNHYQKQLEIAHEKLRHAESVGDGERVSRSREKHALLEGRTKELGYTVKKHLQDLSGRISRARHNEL

Tests used:
[1] = target: recombinant extracellular domain of IFNAR1 (ECD-IFNAR1) (UniProt P17181); assay: pull-down; extracellular domain of IFNAR1 (Sino Biological 13222-H08H) with lysates of HEK-293T cells overexpressing LRPAP1; immunoblot; only the target purified
[2] = target: IFNAR1 ectopically expressed in HEK-293T cells (UniProt P17181); assay: co-IP; HEK-293T cells ectopically expressing LRPAP1 and IFNAR1; lysis buffer with 1% SDS, 1% NP-40; indicated antibodies overnight at 4 °C, protein A/G plus-agarose; immunoblot

LRPAP1 ectopically expressed in HEK-293T cells (from UniProt P30533 35-357)
binding [1]: binds
binding [2]: binds
